Data from the supplement of paper PMC7661543.
Differences between knockout arms are mostly noise.

Tested on: BT-20
Experiment: relative cell number vs DMSO control (72 h) (% of DMSO); higher = less growth inhibition (more cells)
Experimental: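 QMAP-Seq: a pool of 5 breast cancer cell lines (ZR-75-1, SKBR3, HCC-38, MDA-MB-231, BT-20), each carrying 12 doxycycline-inducible Cas9 sgRNA perturbations (11 knockouts plus non-targeting sgNT), was treated with compounds for 72 h at four 10-fold doses (10 nM-10 uM or 1 nM-1 uM range). Barcodes were amplified and sequenced, and cell number was interpolated from 293T spike-in standard curves. The result is expressed as % of the median of DMSO wells. Two biological replicates.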

CC(C)CC(=O)Nc1n[nH]c2c1CN(C(=O)C1CCN(C)CC1)C2(C)C
Conditions | relative cell number
sgRNA knockout: sgATF3, 10 nM | 97.7
sgRNA knockout: sgATF3, 100 nM | 72.3
sgRNA knockout: sgATF3, 1000 nM | 38.2
sgRNA knockout: sgATF3, 10000 nM | 28.3
sgRNA knockout: sgATF4, 10 nM | 114
sgRNA knockout: sgATF4, 100 nM | 72.4
sgRNA knockout: sgATF4, 1000 nM | 39.4
sgRNA knockout: sgATF4, 10000 nM | 27.3
sgRNA knockout: sgATF6, 10 nM | 105
sgRNA knockout: sgATF6, 100 nM | 69.1
sgRNA knockout: sgATF6, 1000 nM | 39
sgRNA knockout: sgATF6, 10000 nM | 30.8
sgRNA knockout: sgATG7, 10 nM | 110
sgRNA knockout: sgATG7, 100 nM | 80.5
sgRNA knockout: sgATG7, 1000 nM | 38.6
sgRNA knockout: sgATG7, 10000 nM | 27.4
sgRNA knockout: sgERN1, 10 nM | 92.5
sgRNA knockout: sgERN1, 100 nM | 80.4
sgRNA knockout: sgERN1, 1000 nM | 39.1
sgRNA knockout: sgERN1, 10000 nM | 28.1
sgRNA knockout: sgHSF1, 10 nM | 105
sgRNA knockout: sgHSF1, 100 nM | 72.6
sgRNA knockout: sgHSF1, 1000 nM | 40.5
sgRNA knockout: sgHSF1, 10000 nM | 29
sgRNA knockout: sgHSF2, 10 nM | 113
sgRNA knockout: sgHSF2, 100 nM | 75.3
sgRNA knockout: sgHSF2, 1000 nM | 45
sgRNA knockout: sgHSF2, 10000 nM | 26.8
sgRNA knockout: sgKEAP1, 10 nM | 91.4
sgRNA knockout: sgKEAP1, 100 nM | 77.9
sgRNA knockout: sgKEAP1, 1000 nM | 34.3
sgRNA knockout: sgKEAP1, 10000 nM | 27.2
sgRNA knockout: sgNFE2L2, 10 nM | 112
sgRNA knockout: sgNFE2L2, 100 nM | 64.7
sgRNA knockout: sgNFE2L2, 1000 nM | 40.2
sgRNA knockout: sgNFE2L2, 10000 nM | 30.3
sgRNA knockout: sgSLC35F2, 10 nM | 98.8
sgRNA knockout: sgSLC35F2, 100 nM | 65.3
sgRNA knockout: sgSLC35F2, 1000 nM | 47.2
sgRNA knockout: sgSLC35F2, 10000 nM | 26.1
sgRNA knockout: sgXBP1, 10 nM | 108
sgRNA knockout: sgXBP1, 100 nM | 73
sgRNA knockout: sgXBP1, 1000 nM | 43
sgRNA knockout: sgXBP1, 10000 nM | 26.1

Cc1c(Cn2c(C)nc3c(C(=O)O)cc(N4CCOCC4)cc32)cccc1C(F)(F)F
Conditions | relative cell number
sgRNA knockout: sgATF3, 10 nM | 80.4
sgRNA knockout: sgATF3, 100 nM | 113
sgRNA knockout: sgATF3, 1000 nM | 100
sgRNA knockout: sgATF3, 10000 nM | 111
sgRNA knockout: sgATF4, 10 nM | 97.2
sgRNA knockout: sgATF4, 100 nM | 112
sgRNA knockout: sgATF4, 1000 nM | 98.7
sgRNA knockout: sgATF4, 10000 nM | 105
sgRNA knockout: sgATF6, 10 nM | 101
sgRNA knockout: sgATF6, 100 nM | 104
sgRNA knockout: sgATF6, 1000 nM | 82.5
sgRNA knockout: sgATF6, 10000 nM | 97.2
sgRNA knockout: sgATG7, 10 nM | 110
sgRNA knockout: sgATG7, 100 nM | 102
sgRNA knockout: sgATG7, 1000 nM | 98.32
sgRNA knockout: sgATG7, 10000 nM | 100
sgRNA knockout: sgERN1, 10 nM | 89.95
sgRNA knockout: sgERN1, 100 nM | 97.8
sgRNA knockout: sgERN1, 1000 nM | 83
sgRNA knockout: sgERN1, 10000 nM | 103
sgRNA knockout: sgHSF1, 10 nM | 102
sgRNA knockout: sgHSF1, 100 nM | 102
sgRNA knockout: sgHSF1, 1000 nM | 94.8
sgRNA knockout: sgHSF1, 10000 nM | 105
sgRNA knockout: sgHSF2, 10 nM | 114
sgRNA knockout: sgHSF2, 100 nM | 116
sgRNA knockout: sgHSF2, 1000 nM | 99.2
sgRNA knockout: sgHSF2, 10000 nM | 83.2
sgRNA knockout: sgKEAP1, 10 nM | 109
sgRNA knockout: sgKEAP1, 100 nM | 100
sgRNA knockout: sgKEAP1, 1000 nM | 94
sgRNA knockout: sgKEAP1, 10000 nM | 102
sgRNA knockout: sgNFE2L2, 10 nM | 125
sgRNA knockout: sgNFE2L2, 100 nM | 146
sgRNA knockout: sgNFE2L2, 1000 nM | 97.6
sgRNA knockout: sgNFE2L2, 10000 nM | 124.6
sgRNA knockout: sgSLC35F2, 10 nM | 105
sgRNA knockout: sgSLC35F2, 100 nM | 116
sgRNA knockout: sgSLC35F2, 1000 nM | 98.2
sgRNA knockout: sgSLC35F2, 10000 nM | 107
sgRNA knockout: sgXBP1, 10 nM | 109
sgRNA knockout: sgXBP1, 100 nM | 109
sgRNA knockout: sgXBP1, 1000 nM | 97.7
sgRNA knockout: sgXBP1, 10000 nM | 96.2

Cc1cc(N2CCOCC2)cc2[nH]c(-c3c(NC[C@@H](O)c4cccc(Cl)c4)cc[nH]c3=O)nc12
Conditions | relative cell number
sgRNA knockout: sgATF3, 10 nM | 102
sgRNA knockout: sgATF3, 100 nM | 94.5
sgRNA knockout: sgATF3, 1000 nM | 99.6
sgRNA knockout: sgATF3, 10000 nM | 74.3
sgRNA knockout: sgATF4, 10 nM | 95.43
sgRNA knockout: sgATF4, 100 nM | 84.1
sgRNA knockout: sgATF4, 1000 nM | 103
sgRNA knockout: sgATF4, 10000 nM | 71.7
sgRNA knockout: sgATF6, 10 nM | 91.6
sgRNA knockout: sgATF6, 100 nM | 105
sgRNA knockout: sgATF6, 1000 nM | 96.9
sgRNA knockout: sgATF6, 10000 nM | 63.8
sgRNA knockout: sgATG7, 10 nM | 89.96
sgRNA knockout: sgATG7, 100 nM | 97
sgRNA knockout: sgATG7, 1000 nM | 94
sgRNA knockout: sgATG7, 10000 nM | 84.5
sgRNA knockout: sgERN1, 10 nM | 88.1
sgRNA knockout: sgERN1, 100 nM | 86.9
sgRNA knockout: sgERN1, 1000 nM | 112
sgRNA knockout: sgERN1, 10000 nM | 67.7
sgRNA knockout: sgHSF1, 10 nM | 92.8
sgRNA knockout: sgHSF1, 100 nM | 78.2
sgRNA knockout: sgHSF1, 1000 nM | 104
sgRNA knockout: sgHSF1, 10000 nM | 62.1
sgRNA knockout: sgHSF2, 10 nM | 95.9
sgRNA knockout: sgHSF2, 100 nM | 78.95
sgRNA knockout: sgHSF2, 1000 nM | 112
sgRNA knockout: sgHSF2, 10000 nM | 67.1
sgRNA knockout: sgKEAP1, 10 nM | 104
sgRNA knockout: sgKEAP1, 100 nM | 74.1
sgRNA knockout: sgKEAP1, 1000 nM | 97.7
sgRNA knockout: sgKEAP1, 10000 nM | 65.4
sgRNA knockout: sgNFE2L2, 10 nM | 92.1
sgRNA knockout: sgNFE2L2, 100 nM | 87.4
sgRNA knockout: sgNFE2L2, 1000 nM | 111
sgRNA knockout: sgNFE2L2, 10000 nM | 66.8
sgRNA knockout: sgSLC35F2, 10 nM | 101.6
sgRNA knockout: sgSLC35F2, 100 nM | 87.6
sgRNA knockout: sgSLC35F2, 1000 nM | 103
sgRNA knockout: sgSLC35F2, 10000 nM | 66.8
sgRNA knockout: sgXBP1, 10 nM | 103
sgRNA knockout: sgXBP1, 100 nM | 87.3
sgRNA knockout: sgXBP1, 1000 nM | 110.6
sgRNA knockout: sgXBP1, 10000 nM | 69.1
